Results reported in the supplement of paper PMC11732987, “Enantioselective OTUD7B fragment discovery through chemoproteomics screening and high-throughput optimisation” (Communications Chemistry, 2025).
This is one part of the list. The data scatter; read single values as rough.

The chains behind the UniProt entries cited, without tags or fusion partners. Where a name states a change or a piece, a line headed by the entry shows the natural chain unless it says otherwise. Residues count along the entry.
UniProt Q5VT06, 2421-2442: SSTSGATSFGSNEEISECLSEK
UniProt Q5VV42: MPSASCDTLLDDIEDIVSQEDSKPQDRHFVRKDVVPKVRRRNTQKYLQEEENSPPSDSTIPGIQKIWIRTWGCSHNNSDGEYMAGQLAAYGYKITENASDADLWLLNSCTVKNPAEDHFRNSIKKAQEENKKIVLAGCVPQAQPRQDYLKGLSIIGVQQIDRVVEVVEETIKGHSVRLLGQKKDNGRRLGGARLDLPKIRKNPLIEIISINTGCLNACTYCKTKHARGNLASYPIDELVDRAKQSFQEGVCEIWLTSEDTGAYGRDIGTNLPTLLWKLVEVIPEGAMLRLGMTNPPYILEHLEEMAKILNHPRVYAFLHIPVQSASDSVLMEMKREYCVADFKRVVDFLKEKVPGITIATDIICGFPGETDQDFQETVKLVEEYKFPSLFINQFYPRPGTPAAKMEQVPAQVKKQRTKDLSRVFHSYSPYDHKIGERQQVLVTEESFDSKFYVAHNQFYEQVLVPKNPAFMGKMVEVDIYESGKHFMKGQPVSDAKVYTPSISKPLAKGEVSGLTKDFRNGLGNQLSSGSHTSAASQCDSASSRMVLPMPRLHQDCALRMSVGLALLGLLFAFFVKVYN
UniProt Q86WR0: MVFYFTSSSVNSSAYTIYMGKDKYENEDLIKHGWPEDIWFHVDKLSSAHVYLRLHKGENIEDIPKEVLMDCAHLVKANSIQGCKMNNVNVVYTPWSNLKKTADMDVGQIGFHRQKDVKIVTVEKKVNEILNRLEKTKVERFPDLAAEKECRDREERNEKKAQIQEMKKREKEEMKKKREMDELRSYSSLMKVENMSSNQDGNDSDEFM
UniProt P48643: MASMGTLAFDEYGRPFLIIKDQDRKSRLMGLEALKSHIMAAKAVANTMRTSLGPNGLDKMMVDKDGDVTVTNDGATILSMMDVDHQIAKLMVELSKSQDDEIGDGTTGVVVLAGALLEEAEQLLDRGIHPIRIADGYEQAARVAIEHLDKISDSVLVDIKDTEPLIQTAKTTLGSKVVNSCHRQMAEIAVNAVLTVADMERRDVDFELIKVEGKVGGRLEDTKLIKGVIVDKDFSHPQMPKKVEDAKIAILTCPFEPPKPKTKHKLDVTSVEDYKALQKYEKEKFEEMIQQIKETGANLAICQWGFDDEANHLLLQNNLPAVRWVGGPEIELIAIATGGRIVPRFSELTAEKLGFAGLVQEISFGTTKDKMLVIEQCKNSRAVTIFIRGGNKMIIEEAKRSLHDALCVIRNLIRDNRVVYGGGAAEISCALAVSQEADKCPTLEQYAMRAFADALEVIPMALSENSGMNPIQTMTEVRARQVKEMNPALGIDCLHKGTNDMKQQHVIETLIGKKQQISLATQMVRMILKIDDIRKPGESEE
UniProt Q01850: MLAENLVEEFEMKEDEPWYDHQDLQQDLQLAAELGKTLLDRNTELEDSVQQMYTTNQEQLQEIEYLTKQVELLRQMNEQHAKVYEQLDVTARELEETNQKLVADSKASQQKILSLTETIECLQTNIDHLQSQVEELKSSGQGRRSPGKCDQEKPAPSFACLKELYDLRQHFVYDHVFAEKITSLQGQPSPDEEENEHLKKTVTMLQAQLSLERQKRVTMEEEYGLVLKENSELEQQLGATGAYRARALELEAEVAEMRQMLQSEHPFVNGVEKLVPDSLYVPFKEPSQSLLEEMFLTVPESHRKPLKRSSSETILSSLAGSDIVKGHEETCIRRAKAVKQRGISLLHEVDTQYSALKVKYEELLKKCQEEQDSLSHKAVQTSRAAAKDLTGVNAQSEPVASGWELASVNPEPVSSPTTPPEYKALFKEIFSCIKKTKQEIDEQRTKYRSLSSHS
UniProt P49454: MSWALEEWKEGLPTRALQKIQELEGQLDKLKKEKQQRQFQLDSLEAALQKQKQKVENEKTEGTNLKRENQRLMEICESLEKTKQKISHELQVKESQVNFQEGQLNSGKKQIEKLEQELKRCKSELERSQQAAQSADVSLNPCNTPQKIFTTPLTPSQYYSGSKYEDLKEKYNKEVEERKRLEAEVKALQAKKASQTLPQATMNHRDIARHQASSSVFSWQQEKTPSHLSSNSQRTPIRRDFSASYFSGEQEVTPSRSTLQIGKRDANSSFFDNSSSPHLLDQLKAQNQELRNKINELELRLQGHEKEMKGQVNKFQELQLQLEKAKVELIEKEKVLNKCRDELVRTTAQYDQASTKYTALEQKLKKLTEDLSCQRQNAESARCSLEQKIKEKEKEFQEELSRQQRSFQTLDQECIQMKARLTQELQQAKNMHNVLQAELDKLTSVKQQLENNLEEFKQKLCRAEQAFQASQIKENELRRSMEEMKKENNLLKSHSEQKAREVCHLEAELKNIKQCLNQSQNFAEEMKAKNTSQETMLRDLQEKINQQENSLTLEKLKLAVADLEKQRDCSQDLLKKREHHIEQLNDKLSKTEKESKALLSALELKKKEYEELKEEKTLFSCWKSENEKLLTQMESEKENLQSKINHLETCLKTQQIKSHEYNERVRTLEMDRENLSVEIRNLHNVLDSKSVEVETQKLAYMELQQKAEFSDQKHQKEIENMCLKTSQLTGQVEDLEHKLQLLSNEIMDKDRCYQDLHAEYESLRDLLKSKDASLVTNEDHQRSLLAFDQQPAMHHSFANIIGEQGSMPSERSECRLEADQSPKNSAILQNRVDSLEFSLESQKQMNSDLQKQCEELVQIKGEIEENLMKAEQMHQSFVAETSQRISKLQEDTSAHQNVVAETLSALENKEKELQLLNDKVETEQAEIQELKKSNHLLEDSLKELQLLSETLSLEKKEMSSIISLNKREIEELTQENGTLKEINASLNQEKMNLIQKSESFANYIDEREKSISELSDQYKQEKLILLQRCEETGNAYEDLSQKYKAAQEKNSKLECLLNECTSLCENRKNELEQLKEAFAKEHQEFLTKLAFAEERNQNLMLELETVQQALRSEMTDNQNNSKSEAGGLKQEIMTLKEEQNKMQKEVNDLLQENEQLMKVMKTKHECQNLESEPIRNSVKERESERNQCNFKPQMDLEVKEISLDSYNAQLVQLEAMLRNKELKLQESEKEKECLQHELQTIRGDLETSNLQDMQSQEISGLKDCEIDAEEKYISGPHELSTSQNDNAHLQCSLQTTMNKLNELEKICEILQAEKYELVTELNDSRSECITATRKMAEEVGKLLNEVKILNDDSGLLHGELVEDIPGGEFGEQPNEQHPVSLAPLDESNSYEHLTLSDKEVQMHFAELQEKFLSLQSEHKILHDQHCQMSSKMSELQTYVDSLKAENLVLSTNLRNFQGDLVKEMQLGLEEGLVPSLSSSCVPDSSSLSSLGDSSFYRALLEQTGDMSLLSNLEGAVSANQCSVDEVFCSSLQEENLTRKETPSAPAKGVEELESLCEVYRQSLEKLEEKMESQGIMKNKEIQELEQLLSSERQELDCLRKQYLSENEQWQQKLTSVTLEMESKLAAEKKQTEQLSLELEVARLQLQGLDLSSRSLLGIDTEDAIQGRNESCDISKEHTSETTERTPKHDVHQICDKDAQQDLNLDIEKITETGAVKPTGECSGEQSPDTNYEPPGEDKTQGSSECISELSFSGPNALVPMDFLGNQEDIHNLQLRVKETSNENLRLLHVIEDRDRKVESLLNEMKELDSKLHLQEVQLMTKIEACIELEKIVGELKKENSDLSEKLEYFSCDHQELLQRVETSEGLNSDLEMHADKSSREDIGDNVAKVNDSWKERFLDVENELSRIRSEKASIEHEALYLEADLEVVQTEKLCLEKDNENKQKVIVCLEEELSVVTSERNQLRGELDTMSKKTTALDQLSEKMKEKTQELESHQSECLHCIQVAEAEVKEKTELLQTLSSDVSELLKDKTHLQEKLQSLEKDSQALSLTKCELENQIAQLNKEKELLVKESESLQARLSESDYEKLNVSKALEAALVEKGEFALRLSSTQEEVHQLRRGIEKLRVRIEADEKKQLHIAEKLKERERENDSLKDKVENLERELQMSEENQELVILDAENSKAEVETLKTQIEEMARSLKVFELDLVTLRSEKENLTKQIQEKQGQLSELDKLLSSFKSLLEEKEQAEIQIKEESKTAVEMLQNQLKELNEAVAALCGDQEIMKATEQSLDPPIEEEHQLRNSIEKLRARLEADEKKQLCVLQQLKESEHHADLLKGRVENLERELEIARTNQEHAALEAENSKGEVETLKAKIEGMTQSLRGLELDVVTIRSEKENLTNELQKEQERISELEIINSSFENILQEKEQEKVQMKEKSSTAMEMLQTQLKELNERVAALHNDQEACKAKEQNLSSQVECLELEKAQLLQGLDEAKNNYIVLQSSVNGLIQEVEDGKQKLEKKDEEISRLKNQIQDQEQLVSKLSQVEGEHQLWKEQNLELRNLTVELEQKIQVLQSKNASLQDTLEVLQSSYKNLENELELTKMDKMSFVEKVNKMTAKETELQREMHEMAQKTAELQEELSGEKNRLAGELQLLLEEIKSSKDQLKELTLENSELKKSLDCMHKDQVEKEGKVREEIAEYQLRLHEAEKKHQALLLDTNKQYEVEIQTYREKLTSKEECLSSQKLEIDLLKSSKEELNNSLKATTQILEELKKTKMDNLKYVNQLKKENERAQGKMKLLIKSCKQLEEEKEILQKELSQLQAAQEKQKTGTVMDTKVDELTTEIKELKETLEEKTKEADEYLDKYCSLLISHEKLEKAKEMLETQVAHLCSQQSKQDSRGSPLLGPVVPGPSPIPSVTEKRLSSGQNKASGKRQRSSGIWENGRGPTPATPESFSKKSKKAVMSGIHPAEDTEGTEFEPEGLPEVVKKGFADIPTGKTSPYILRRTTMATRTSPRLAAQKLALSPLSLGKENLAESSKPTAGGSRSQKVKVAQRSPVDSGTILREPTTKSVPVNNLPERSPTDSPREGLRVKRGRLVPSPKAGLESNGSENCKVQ
UniProt Q9NYV4: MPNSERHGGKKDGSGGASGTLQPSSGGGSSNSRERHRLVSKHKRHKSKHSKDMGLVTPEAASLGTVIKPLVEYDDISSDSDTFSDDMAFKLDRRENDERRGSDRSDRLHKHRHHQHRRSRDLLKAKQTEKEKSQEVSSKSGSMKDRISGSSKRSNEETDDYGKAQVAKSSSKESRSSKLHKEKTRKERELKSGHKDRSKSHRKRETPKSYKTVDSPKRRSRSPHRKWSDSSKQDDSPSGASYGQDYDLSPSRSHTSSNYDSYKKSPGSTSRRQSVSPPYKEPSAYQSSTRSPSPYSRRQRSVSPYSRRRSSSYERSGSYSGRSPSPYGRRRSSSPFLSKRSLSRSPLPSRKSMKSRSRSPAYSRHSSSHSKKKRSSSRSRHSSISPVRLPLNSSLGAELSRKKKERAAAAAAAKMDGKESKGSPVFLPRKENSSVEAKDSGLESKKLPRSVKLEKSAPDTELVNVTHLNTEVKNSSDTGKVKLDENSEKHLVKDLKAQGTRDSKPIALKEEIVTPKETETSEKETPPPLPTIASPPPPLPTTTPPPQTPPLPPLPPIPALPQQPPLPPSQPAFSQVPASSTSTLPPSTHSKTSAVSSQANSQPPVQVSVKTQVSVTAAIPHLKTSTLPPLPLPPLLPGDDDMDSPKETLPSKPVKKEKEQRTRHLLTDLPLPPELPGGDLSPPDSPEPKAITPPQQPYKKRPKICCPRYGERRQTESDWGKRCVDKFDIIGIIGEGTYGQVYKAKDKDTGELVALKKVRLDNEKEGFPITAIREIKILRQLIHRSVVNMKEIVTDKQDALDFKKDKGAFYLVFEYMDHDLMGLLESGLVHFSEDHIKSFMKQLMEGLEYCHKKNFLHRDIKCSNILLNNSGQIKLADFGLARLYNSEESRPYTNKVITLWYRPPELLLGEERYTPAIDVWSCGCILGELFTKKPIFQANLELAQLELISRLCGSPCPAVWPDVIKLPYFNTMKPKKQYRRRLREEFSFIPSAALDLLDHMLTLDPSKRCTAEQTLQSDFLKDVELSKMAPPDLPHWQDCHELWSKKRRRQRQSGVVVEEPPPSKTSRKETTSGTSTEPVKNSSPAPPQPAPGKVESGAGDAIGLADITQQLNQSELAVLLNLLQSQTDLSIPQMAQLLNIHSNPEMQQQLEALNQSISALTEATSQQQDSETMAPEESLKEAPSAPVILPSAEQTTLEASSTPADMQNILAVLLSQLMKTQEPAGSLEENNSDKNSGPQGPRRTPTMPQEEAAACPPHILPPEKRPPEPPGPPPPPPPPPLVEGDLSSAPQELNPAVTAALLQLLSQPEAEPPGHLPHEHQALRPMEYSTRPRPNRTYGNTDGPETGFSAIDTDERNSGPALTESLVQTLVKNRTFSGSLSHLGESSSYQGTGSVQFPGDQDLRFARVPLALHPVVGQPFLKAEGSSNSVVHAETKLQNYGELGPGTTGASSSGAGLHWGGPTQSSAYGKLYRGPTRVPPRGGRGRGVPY

compound: ClCC(=O)N[C@@H]1CCCc2ccccc12; assay: log2 mean competition ratio of IA-DTB cysteine labelling (DMSO/compound) (log2 ratio); higher = stronger cysteine engagement by compound; conditions: 50 µM; treatment time: 4 h; cell line lysate: HEK293T
Procedure: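 IA-DTB competitive cysteine chemoproteomics in HEK293T RIPA lysate. Lysates were treated with compound 29 or 30 at 50 or 200 µM for 4 h, then IA-DTB (500 µM, 1 h), trypsin-digested, NeutrAvidin-enriched and analysed by diaPASEF. Competition ratio = intensity DMSO / intensity compound (n=4 treated, n=64 DMSO); binding: mean log2 CR ≥ 1 and p ≤ 0.05 plus QC filters. Target is the cysteine site.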

| Target | log2 mean competition ratio |
| --- | --- |
| CDK5RAP3 C165 (UniProt Q96JB5) | 0.126 |
| CDC16 C133 (UniProt Q13042) | 0.229 |
| CEP350 C2438 (UniProt Q5VT06) | -0.0926 |
| CDKAL1 C556 (UniProt Q5VV42) | 0.144 |
| CCDC144A;CCDC144CP C1116;(C926) | 0.0809 |
| CCDC25 C150 (UniProt Q86WR0) | -0.126 |
| CCT5 C493 (UniProt P48643) | 0.218 |
| CHAF1A C207 (UniProt Q13111) | 0.00959 |
| CDR2 C367 (UniProt Q01850) | 0.224 |
| CENPF C650 (UniProt P49454) | -0.0747 |
| CENPF C1328 (UniProt P49454) | 0.0188 |
| CENPI C332 | 0.101 |
| CDR2 C331 (UniProt Q01850) | -0.0689 |
| CDYL2 C288 | 0.371 |
| CCT3 C213 | -0.366 |
| CDK4 C78 (UniProt P11802) | -0.08 |
| CEP170 C212 (UniProt Q5SW79) | -0.0972 |
| CDK17 C304 (UniProt Q00537) | 0.144 |
| CDC27 C137 | -0.123 |
| CDK12 C862 (UniProt Q9NYV4) | 0.486 |

same assay, conditions: 200 µM; treatment time: 4 h; cell line lysate: HEK293T

| Target | log2 mean competition ratio |
| --- | --- |
| CDK5RAP3 C165 (UniProt Q96JB5) | -0.0193 |
| CDC16 C133 (UniProt Q13042) | -0.17 |
| CEP350 C2438 (UniProt Q5VT06) | 0.0619 |
| CDKAL1 C556 (UniProt Q5VV42) | 0.204 |
| CCDC144A;CCDC144CP C1116;(C926) | 0.154 |
| CCDC25 C150 (UniProt Q86WR0) | 0.182 |
| CCT5 C493 (UniProt P48643) | -0.0168 |
| CHAF1A C207 (UniProt Q13111) | 0.312 |
| CDR2 C367 (UniProt Q01850) | -0.0972 |
| CENPF C650 (UniProt P49454) | -0.0962 |
| CENPF C1328 (UniProt P49454) | 0.0722 |
| CENPI C332 | 0.298 |
| CDR2 C331 (UniProt Q01850) | -0.0174 |
| CDYL2 C288 | -0.313 |
| CCT3 C213 | 0.202 |
| CDK4 C78 (UniProt P11802) | -0.0949 |
| CEP170 C212 (UniProt Q5SW79) | 0.0951 |
| CDK17 C304 (UniProt Q00537) | -0.178 |
| CDC27 C137 | -0.149 |
| CDK12 C862 (UniProt Q9NYV4) | 0.157 |
